For the assay, the target named is Fc-His-TMPRSS2^ECD (UniProt O15393). Briefly: pull-down; both purified.

Protein sequences, listed by entry. Tags and fused reporters are not part of them. Lines headed by an entry give the natural chain unless they say otherwise; changes in a name come on top. Chains listed by the source or under a name are the forms on record and can include a tag or linker.
Fc-His-TMPRSS2^ECD (O15393, form named): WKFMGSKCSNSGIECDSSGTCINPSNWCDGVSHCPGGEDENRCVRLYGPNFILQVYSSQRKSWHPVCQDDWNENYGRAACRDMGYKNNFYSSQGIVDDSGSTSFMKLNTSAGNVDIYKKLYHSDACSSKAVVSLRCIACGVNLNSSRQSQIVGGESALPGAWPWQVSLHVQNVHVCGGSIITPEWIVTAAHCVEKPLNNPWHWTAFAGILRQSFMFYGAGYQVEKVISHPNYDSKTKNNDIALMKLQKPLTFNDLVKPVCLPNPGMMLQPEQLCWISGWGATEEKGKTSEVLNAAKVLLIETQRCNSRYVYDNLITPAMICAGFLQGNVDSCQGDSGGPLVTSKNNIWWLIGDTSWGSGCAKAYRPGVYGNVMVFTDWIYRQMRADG

These are yes or no findings as the source states them, for the method shown.

Consider “TcsH^1832-2209, His-tagged (from UniProt M9ZTT7 1832-2209) (domain or fragment)”, for which the binding result is on record as “no binding (tested: 10 nM)”.

The values are drawn from paper PMC10912200.
